{"sequences": {"note": "Amino acid sequences for entries named in this document (tags omitted). Residues count along the entry.", "UniProt Q12879, 23-1464": "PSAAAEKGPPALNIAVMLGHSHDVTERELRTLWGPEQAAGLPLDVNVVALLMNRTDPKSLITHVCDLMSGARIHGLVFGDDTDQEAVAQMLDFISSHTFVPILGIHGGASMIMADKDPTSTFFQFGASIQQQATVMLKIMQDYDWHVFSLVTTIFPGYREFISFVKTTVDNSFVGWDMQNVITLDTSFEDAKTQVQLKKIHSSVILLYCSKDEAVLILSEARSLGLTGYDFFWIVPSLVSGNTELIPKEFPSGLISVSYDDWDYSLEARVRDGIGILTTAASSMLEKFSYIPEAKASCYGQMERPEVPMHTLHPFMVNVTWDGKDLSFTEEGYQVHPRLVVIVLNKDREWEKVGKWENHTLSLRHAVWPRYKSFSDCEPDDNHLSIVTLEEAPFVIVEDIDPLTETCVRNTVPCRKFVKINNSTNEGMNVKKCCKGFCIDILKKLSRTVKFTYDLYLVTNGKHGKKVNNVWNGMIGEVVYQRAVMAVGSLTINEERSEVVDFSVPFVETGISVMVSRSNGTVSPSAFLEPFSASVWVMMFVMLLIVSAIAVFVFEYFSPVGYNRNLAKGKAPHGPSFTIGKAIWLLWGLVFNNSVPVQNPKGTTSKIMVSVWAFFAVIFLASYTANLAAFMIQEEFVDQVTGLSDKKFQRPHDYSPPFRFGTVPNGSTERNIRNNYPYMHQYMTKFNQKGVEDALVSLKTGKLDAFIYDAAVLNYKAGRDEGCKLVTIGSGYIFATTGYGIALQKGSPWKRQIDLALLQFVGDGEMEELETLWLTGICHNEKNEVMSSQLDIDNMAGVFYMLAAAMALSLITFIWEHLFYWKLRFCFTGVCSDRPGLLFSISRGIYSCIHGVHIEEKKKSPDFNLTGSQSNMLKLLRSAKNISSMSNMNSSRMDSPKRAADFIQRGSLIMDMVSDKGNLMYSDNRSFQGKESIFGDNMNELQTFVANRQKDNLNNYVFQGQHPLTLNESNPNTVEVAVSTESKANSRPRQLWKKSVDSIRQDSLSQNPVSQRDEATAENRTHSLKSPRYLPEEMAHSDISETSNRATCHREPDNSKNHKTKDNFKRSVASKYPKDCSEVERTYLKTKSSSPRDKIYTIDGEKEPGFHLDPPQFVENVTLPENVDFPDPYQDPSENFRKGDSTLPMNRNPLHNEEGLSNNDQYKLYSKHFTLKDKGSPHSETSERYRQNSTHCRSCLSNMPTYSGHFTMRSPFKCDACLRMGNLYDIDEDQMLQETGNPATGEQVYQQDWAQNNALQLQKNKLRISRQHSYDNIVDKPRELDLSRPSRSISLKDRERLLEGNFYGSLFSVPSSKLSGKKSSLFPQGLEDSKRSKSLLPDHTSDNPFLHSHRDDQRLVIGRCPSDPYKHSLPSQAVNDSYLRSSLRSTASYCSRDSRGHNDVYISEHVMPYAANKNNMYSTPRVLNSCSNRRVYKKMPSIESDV"}, "source": "patent US20160022701A1", "about": "“NEUROACTIVE STEROIDS, COMPOSITIONS, AND USES THEREOF” (SAGE THERAPEUTICS, INC., priority 2013, published 2016)", "target": "T1, NMDA receptor (GRIN1/GRIN2A subunits) (Homo sapiens, UniProt Q05586+Q12879)", "T1 construct": "expressed in transfected cells; host or cells: HEK 293 cells, stably transfected with GRIN1 and transiently transfected with GRIN2A and CD8", "assay": "NMDA potentiation, whole-cell patch-clamp in HEK cells", "assay_type": "cell-based", "conditions": "currents evoked by 30 μM NMDA and 5.0 μM Glycine, holding potential −80 mV", "note": "Several values for one entry are separate records, joined by “and”; a condition that tells them apart may be missing. Equal entries are not always repeated. The name of at least one read-out is uncertain."}
{"smiles": "C[C@H](CCC(C)(C)O)[C@H]1CC[C@H]2[C@@H]3CC[C@H]4C[C@@](C)(O)CC[C@]4(C)[C@H]3CC[C@]12C", "values": [{"measurement": "NMDA 1a2A (%) Potentiation 0.1 uM", "setting": "compound 0.1 uM", "result": 70, "unit": "%"}, {"measurement": "NMDA 1a2A (%) Potentiation 1 uM", "setting": "compound 1 uM", "result": "278% and 238%"}]}
